These are yes or no findings as the source states them, for the method shown. In cells and extracts the contact can be indirect. Some entries that bind do so weakly or less than the wild type.
Columns and labels:
[1] = biological target: T1, lysosome-associated membrane protein 1 (human (endogenous in 293T)) (UniProt P11279); assay: co-IP
T1 sequence: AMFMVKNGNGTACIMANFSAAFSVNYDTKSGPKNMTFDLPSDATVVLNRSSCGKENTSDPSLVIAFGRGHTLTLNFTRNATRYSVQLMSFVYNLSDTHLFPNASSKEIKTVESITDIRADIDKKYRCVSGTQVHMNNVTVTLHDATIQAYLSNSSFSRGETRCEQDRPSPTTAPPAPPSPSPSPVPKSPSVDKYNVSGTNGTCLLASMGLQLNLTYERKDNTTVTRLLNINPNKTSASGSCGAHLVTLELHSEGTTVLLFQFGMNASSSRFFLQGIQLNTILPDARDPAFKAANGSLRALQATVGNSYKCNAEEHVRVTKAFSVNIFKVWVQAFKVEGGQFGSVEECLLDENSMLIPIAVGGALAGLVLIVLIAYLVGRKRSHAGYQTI

Amino acid sequences for entries named in this document (tags omitted).
UniProt P0DTC3: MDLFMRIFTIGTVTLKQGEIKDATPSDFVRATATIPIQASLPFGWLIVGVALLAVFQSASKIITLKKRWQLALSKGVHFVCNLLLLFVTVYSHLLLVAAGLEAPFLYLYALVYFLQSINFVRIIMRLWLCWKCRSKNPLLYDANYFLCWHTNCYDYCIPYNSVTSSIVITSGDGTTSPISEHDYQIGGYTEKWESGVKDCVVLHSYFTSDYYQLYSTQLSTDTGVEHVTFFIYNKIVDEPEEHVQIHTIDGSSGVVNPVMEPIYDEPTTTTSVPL

[2] = biological target: T2, ubiquitin E3 ligase TRIM59 (human (endogenous in 293T)) (UniProt Q8IWR1); assay: co-IP
T2 sequence: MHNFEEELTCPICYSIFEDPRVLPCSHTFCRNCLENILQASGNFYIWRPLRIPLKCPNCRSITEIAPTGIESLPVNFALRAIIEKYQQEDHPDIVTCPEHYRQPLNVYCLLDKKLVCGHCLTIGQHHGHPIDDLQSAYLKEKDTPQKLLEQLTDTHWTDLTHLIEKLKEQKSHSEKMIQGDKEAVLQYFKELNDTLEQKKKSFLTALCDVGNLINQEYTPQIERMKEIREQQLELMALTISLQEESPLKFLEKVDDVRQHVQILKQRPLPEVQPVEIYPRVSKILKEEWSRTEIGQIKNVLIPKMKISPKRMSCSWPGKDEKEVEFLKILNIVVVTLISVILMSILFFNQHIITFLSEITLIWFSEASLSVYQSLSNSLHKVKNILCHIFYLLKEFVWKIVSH

In the case of “SARS-CoV-2 ORF3a protein, wild type, HA-tagged (from UniProt P0DTC3 1-275)”, the binding [1] is reported as “binds” and the binding [2] is reported as “binds”.

Reference: publication PMC10790703 (mBio, 2023)
